The campaign covered roughly 52,000 sequences. About 210 (0.4%) were called active.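 The calls were made as follows: active = gene whose silencing raises cell survival under the drug, median off-target-corrected z-score across its silencing RNAs 2 or more; inactive = the rest.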 The list shows a part of the results.
assay: Resistance to Poly (ADP-Ribose) Polymerase inhibitor: Gene Identification via Genome-wide siRNA Screen; conditions: mouse BRCA2 R2336H ES cells, olaparib, CellTiter-Glo viability; active compounds read high
In short: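 Genome-wide siRNA screen (3 siRNAs/gene, 20 nM) in mouse ES cells carrying hypomorphic BRCA2 R2336H; olaparib 500 nM added 48 h post-transfection, CellTiter-Glo viability 72 h later. Normalized to plate-median negative control; MAD z-scores, gene median, seed-adjusted.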

Row | Sequence | z-score
1 | CCUGCUUCUCUACAACCAUTT against Olfr1209 | inactive: -0.946
2 | GGGUAUCGUAUCAGAUCCCTT against 1810034K20Rik | inactive: 0.0323
3 | CGAUUAUCCAGAGUGGAGCTT against Ankrd28 | inactive: 0.0933
4 | GGAUGACCAUGAAAGCUGUTT against C330002D13Rik | inactive: -1.27
5 | GGACCUUAAACAAGUACUATT against A030007D23Rik | inactive: 0.282
6 | GGAAGUUCAGAACUCAGUUTT against Prei3 | inactive: -0.0933
7 | GCGAAGGUCCCAAAGAUGATT against 9630058J23Rik | inactive: -0.17
8 | GGUUCGAAAACUCAGCAAUTT against Drd3 | inactive: 1.03
9 | GGAUGACAGUGACCAAAGGTT against D8Ertd82e | inactive: -0.847
10 | GCGGUAUGGCAUGGUACAUTT against Oraov1 | inactive: -0.192
11 | GGACAUCUAUCAGUUUCUUTT against Tnfrsf21 | inactive: 0.906
12 | CCCAUUUAGGUUUUUCCUATT against Pde6d | inactive: 0.811
13 | GGAAGAGAGCUGUCAGUGATT against Pth | inactive: -0.327
14 | GGACAGUUGGCUUCCUUCATT against Adamts6 | inactive: -1.57
15 | CCUCUUAGAUAGCACAUUATT against Epx | inactive: -1.59
16 | CCAGGAUUAUCACAGUGUCTT against Commd8 | inactive: -1.11
17 | GCUCUUUAGACCAGGACAGTT against Olfr103 | inactive: -2.04
18 | GUCACAGUACCCAAAAUGUTT against Olfr979 | inactive: 0.279
19 | GGAAAGCUUCUGAGUAAUGTT against Tfg | inactive: -0.527
20 | GGCACACAAAAGAAUACCUTT against 5330439J01Rik | inactive: 0.861
21 | GCAUGCUACGAUCUGGACUTT against LOC224833 | inactive: -0.96
22 | GCUUCUGAUUAACCUCCAGTT against Olfr1390 | inactive: -1.69
23 | GGUAUUCUAAGAAGUCUUATT against Lmcd1 | inactive: -0.137
24 | GGCUUGAGACUUAAAACGGTT against Lztfl1 | inactive: 0.767
25 | GGGUGUGUAUCUUACUAGUTT against Olfr791 | inactive: 0.0919
26 | GGAUGCUCUAACAGGAAGCTT against Slc26a1 | inactive: -0.432

Looked up above:
Under z-score, GCAUGCUACGAUCUGGACUTT against LOC224833 is listed with inactive: -0.96
Under z-score, GUCACAGUACCCAAAAUGUTT against Olfr979 is listed with inactive: 0.279

(cont.)

Row | Sequence | z-score
27 | GCACUUUCGAGUGGAUGAATT against Hoxd1 | inactive: -1.63
28 | GGAUCAUUGACAGUGAAUATT against Blk | inactive: -0.585
29 | GCGGAUUUACACCUUAUCUTT against 9230105K17Rik | inactive: -0.701
30 | GGUUUGUCAACAUUGCUGATT against Jmjd2a | inactive: 1.06
31 | GGUUAUCUCAAAACUCGACTT against 1700058C01Rik | inactive: -0.367
32 | GGUGUCUGGUUCAUAAAGGTT against Lcn4 | inactive: 0.994
33 | CGAUCUCCCAGGCAAUAACTT against 1700034O15Rik | inactive: -1.14
34 | GGGUUAAGAAAACUAGUGGTT against Nnat | inactive: -0.435
35 | GGACAUGAUAACAUGGAUATT against Ubr1 | inactive: 1.38
36 | GGCUCUGUAAAGUUCGAGGTT against Kcnip1 | inactive: -0.379
37 | GGUAUACAAUCCUUACCGUTT against 4732474A20Rik | inactive: -0.161
38 | GUCACUCUUUUUUAUGGAATT against Olfr485 | inactive: 0.335
39 | GGGAUCCCUUCUGGAAAAGTT against Dmrtc2 | inactive: 1.01
40 | GCGGAAAAAUUACUUUCUUTT against Tas2r107 | inactive: -0.775
41 | GCCACAUGUCAAACAAGAUTT against Tacc1 | inactive: -0.247
42 | GGCAAGCAGUCCAUAUUGUTT against Mapkap1 | inactive: -0.824
43 | GGAUAUGAUCAACGAAGUGTT against Calm1 | inactive: -0.0163
44 | CCGUAAACCUAAAUUAGGATT against Ripk5 | inactive: 0.289
45 | CCUAAAUCCUGCUAGGCGUTT against Cbln1 | inactive: 0.0568
46 | GGAACGUACAGGAUAAUCUTT against BC031593 | inactive: -0.0657
47 | UCAGUCGCAUCUCCAAAAATT against Olfr340 | inactive: -1.45
48 | CGUAAGUCAGUGAUGCUAUTT against Srp19 | inactive: -0.616
49 | GGAAGCAAGGAAAAUCAUGTT against Lpo | inactive: 2.58
50 | GGACCAACAAUCCAGGAUUTT against 5830415L20Rik | inactive: -1.44
51 | GCAAAGACCACACCAUACATT against Gm414 | inactive: 0.803
52 | GGGUCCACAUACAAUAAAGTT against 1500005A01Rik | inactive: -0.00454

Row | Sequence | z-score
53 | GGAGAUCAGCUGUCUAAUGTT against Als2cr4 | inactive: -2.38
54 | GGGACUCGAAGCACUGUGUTT against 2810452K22Rik | inactive: -0.994
55 | GGAUAACCUUGAGUAGGUGTT against Olfr906 | inactive: 0.938
56 | GGAUUUUGUGGAUCCAUGGTT against Wars | inactive: 0.793
57 | GGCCUCCUAACAAUUCAGCTT against Foxp1 | inactive: 0.00103
58 | GGACACCAUGUGCUAGAGCTT against L1cam | inactive: -0.115
59 | GGAUGCAUUGCUGCUGUGGTT against Spnb2 | inactive: -1.1
60 | GGAAACUUGUUGAAGAGAUTT against Ptprz1 | inactive: 1.19
61 | GCAGAAUUGAGUCACCCAATT against Sp1 | inactive: -2.18
62 | GGGUUAGUAAUGAAUGAUGTT against Arpc5l | inactive: 0.904
63 | GCUUCGAGAGUCAACUAUGTT against Mds1 | inactive: 1.39
64 | GGAAGAUGAAUCAUUACCATT against Tmem32 | inactive: -0.983
65 | GGAUGAGAACAUUGUGAUUTT against Pask | inactive: 0.264
66 | GGAUACCACUUUAGAACCATT against Fgfr2 | inactive: 0.299
67 | CCAUGGUUCUGAUCAAUUUTT against Cyp2j11 | inactive: 1.72
68 | GGAAGAGCCAGUGGUAUAATT against A330015D16Rik | inactive: -1.6
69 | GGAAUGUAUGUCUCAGCUCTT against Olfr45 | inactive: -0.245
70 | GGCCUUUGACUUAUUCGAUTT against Cetn4 | inactive: -0.322
71 | GGCAUCAAAGGAGAUAAGGTT against Col9a2 | inactive: 0.419
72 | CCAUCUAUGGACCCGUAACTT against E330017A01Rik | inactive: 1.69
73 | GCUUGUGAGUGGAACUUUCTT against Mcm6 | inactive: -1.33
74 | GGACUGAUGAUCAAGCAAATT against Col8a2 | inactive: 0.58
75 | GGACGUGACUCUCAUCAUCTT against Atp2b3 | inactive: -0.652
76 | GGACAUGAAACUCUGCACCTT against Drd2 | inactive: 1.33
77 | UUUUAGGUUCCCUGGAAUGTT against Mrgprb5 | inactive: 0.0374
78 | GGAAUUGCCAAUCAAUGAUTT against A530099J19Rik | inactive: 0.959

From entry 12 to 14, copied from above:
Row | Sequence | z-score
12 | CCCAUUUAGGUUUUUCCUATT against Pde6d | inactive: 0.811
13 | GGAAGAGAGCUGUCAGUGATT against Pth | inactive: -0.327
14 | GGACAGUUGGCUUCCUUCATT against Adamts6 | inactive: -1.57

(continued)

Row | Sequence | z-score
79 | GGACUACAUCAACCUGGAUTT against Mlf2 | inactive: -1.16
80 | GGCCUUGCUUUCAUAAAGUTT against Mrpl49 | inactive: -0.329
81 | GGAGGAUGGGCAAGAAUAUTT against Eif1ay | inactive: -1.97
82 | GGUGUCUUUUUUUACAAGATT against Tnfsf11 | inactive: -0.0509
83 | GCGACUUCGGAAGAUCUAUTT against Srl | inactive: 1.55
84 | GGAUCAAUGAAAAUGAGAATT against Fzr1 | inactive: -1.74
85 | GCUCUUCGAGUAAAUCACATT against Zfp108 | inactive: -0.575
86 | GGAAUGCUUCAAAAGGGCATT against Fkbp1b | inactive: 0.0255
87 | GCUCUGUCCAAGCACUUUATT against P2rx4 | inactive: -0.927
88 | GCUUAGAGCGAUUCUAUGATT against Brunol4 | inactive: 0.227
89 | GGUAAACAUGAUAUUUGGGTT against Olfr670 | inactive: 0.0219
90 | GGAAGUGAGAAGAUGGAUATT against C630035N08Rik | inactive: -0.797
91 | GGCUAAAGUCAUCUUCUGGTT against E230031K19 | inactive: 0.4
92 | GCUGAAAAAGUGGAAAUCGTT against Psma4 | inactive: -3.09
93 | GGCCAGAGGUGCAAUAUUGTT against Notch2 | inactive: 0.114
94 | GGGAAUGGGUCUUGUAAACTT against Ppat | inactive: 0.54
95 | GGUGGCUGUAAAGAAGUUATT against B230120H23Rik | inactive: 0.99
96 | GGAGCGCAGACAACAGAUUTT against Zfp95 | inactive: -1.88
97 | GGCCCAACAUAUAUCAAAUTT against Adck2 | inactive: -0.359
98 | GGUAUAUGAAAGAUUGUCATT against Vps26 | inactive: 0.163
99 | GGACUUAACUCGUGGAUCCTT against Fancc | inactive: -1.47
100 | GCACUGGACUUAGGAUGGUTT against Ankrd22 | inactive: -0.717
101 | GGGUGUUUACUUUAUAGAATT against AU022726 | inactive: 0.601
102 | GCUUUCGCCAAUAAAAAAGTT against Slc13a2 | inactive: -0.669
103 | GGAUCUGUUUCACUGUGGCTT against Corin | inactive: 0.19
104 | CCGCUAUAUCACGGAGCAGTT against En1 | inactive: -0.266

— PubChem BioAssay AID1347423 (Functional Genomics Laboratory (NCATS/FGL), 2020)
